# The other results are listed elsewhere or left out.
# B1: CLEC9a (Mus musculus), Q8BRU4 (protein)
# chain: MHAEEIYTSLQWDIPTSEASQKCQSPSKCSGAWCVVTMISCVVCMGLLATSIFLGIKFFQVSSLVLEQQERLIQQDTALVNLTQWQRKYTLEYCQALLQRSLHSGSDCSPCPHNWIQNGKSCYYVFERWEMWNISKKSCLKEGASLFQIDSKEEMEFISSIGKLKGGNKYWVGVFQDGISGSWFWEDGSSPLSDLLPAERQRSAGQICGYLKDSTLISDKCDSWKYFICEKKAFGSCI
# Legend:
# Test in all cases: glycan array binding signal (z-score within array); higher = stronger binding
# Conditions in all cases: glycan notation: IUPAC condensed, linker removed
# [1] = biological target: Neu5Ac(a2-6)Gal(b1-4)GlcNAc(b1-2)Man(a1-3)Man(b1-4)GlcNAc(b1-4)GlcNAc
# Procedure, shortened: (§1)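 The Consortium for Functional Glycomics database supplied 3228 glycan arrays, of which those lacking an available protein sequence were dropped. The binding signal, a within-array Z-score, was averaged across arrays of the same protein sequence and across linkers. Negative scores can be read as non-binding.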
# [2] = biological target: Neu5Ac(a2-6)Gal(b1-4)GlcNAc(b1-2)Man(a1-3)[Gal(b1-4)GlcNAc(b1-2)Man(a1-6)]Man(b1-4)GlcNAc(b1-4)GlcNAc
# Procedure, shortened: as §1
# [3] = biological target: Neu5Ac(a2-6)Gal(b1-4)GlcNAc(b1-2)Man(a1-3)[GlcNAc(b1-2)Man(a1-6)]Man(b1-4)GlcNAc(b1-4)GlcNAc
# Procedure, shortened: as §1
# [4] = biological target: Neu5Ac(a2-6)Gal(b1-4)GlcNAc(b1-2)Man(a1-3)[GlcNAc(b1-2)Man(b1-4)GlcNAc(b1-2)Man(a1-6)]Man(b1-4)GlcNAc(b1-4)GlcNAc
# Procedure, shortened: as §1
# [5] = biological target: Neu5Ac(a2-6)Gal(b1-4)GlcNAc(b1-2)Man(a1-3)[Man(a1-6)]Man(b1-4)GlcNAc(b1-4)GlcNAc
# Procedure, shortened: as §1
# [6] = biological target: Neu5Ac(a2-6)Gal(b1-4)GlcNAc(b1-2)Man(a1-3)[Neu5Ac(a2-6)Gal(b1-4)GlcNAc(b1-2)Man(a1-6)]Man(b1-4)GlcNAc(b1-4)GlcNAc
# Procedure, shortened: as §1
# [7] = biological target: Neu5Ac(a2-6)Gal(b1-4)GlcNAc(b1-2)Man(a1-6)Man(b1-4)GlcNAc(b1-4)GlcNAc
# Procedure, shortened: as §1
# [8] = biological target: Neu5Ac(a2-6)Gal(b1-4)GlcNAc(b1-2)Man(a1-6)[Gal(b1-4)GlcNAc(b1-2)Man(a1-3)]Man(b1-4)GlcNAc(b1-4)GlcNAc
# Procedure, shortened: as §1
# [9] = biological target: Neu5Ac(a2-6)Gal(b1-4)GlcNAc(b1-2)Man(a1-6)[GlcNAc(b1-2)Man(a1-3)]Man(b1-4)GlcNAc(b1-4)GlcNAc
# Procedure, shortened: as §1
# [10] = biological target: Neu5Ac(a2-6)Gal(b1-4)GlcNAc(b1-2)Man(a1-6)[Man(a1-3)]Man(b1-4)GlcNAc(b1-4)GlcNAc
# Procedure, shortened: as §1
# [11] = biological target: Neu5Ac(a2-6)Gal(b1-4)GlcNAc(b1-3)Gal(b1-3)GlcNAc
# Procedure, shortened: as §1
# [12] = biological target: Neu5Ac(a2-6)Gal(b1-4)GlcNAc(b1-3)Gal(b1-4)GlcNAc
# Procedure, shortened: as §1
# [13] = biological target: Neu5Ac(a2-6)Gal(b1-4)GlcNAc(b1-3)Gal(b1-4)GlcNAc(b1-3)Gal(b1-4)GlcNAc
# Procedure, shortened: as §1
# [14] = biological target: Neu5Ac(a2-6)Gal(b1-4)GlcNAc(b1-3)Gal(b1-4)[Fuc(a1-3)]GlcNAc(b1-3)Gal(b1-4)[Fuc(a1-3)]GlcNAc
# Procedure, shortened: as §1
# [15] = biological target: Neu5Ac(a2-6)Gal(b1-4)GlcNAc(b1-3)GalNAc
# Procedure, shortened: as §1
# [16] = biological target: Neu5Ac(a2-6)Gal(b1-4)GlcNAc6S
# Procedure, shortened: as §1
# Neu5Ac(a2-6)GalNAc = biological target: Neu5Ac(a2-6)GalNAc
# Procedure, shortened: as §1
# [17] = biological target: Neu5Ac(a2-6)GalNAc(b1-4)GlcNAc
# Procedure, shortened: as §1
# [18] = biological target: Neu5Ac(a2-6)GlcNAc(b1-4)GlcNAc
# Procedure, shortened: as §1
# [19] = biological target: Neu5Ac(a2-6)GlcNAc(b1-4)GlcNAc(b1-4)GlcNAc
# Procedure, shortened: as §1
# Neu5Ac(a2-8)Neu5Ac = biological target: Neu5Ac(a2-8)Neu5Ac
# Procedure, shortened: as §1
# [20] = biological target: Neu5Ac(a2-8)Neu5Ac(a2-3)Gal(b1-4)Glc
# Procedure, shortened: as §1
# [21] = biological target: Neu5Ac(a2-8)Neu5Ac(a2-3)[GalNAc(b1-4)]Gal(b1-4)Glc
# Procedure, shortened: as §1
# [22] = biological target: Neu5Ac(a2-8)Neu5Ac(a2-8)Neu5Ac
# Procedure, shortened: as §1
# [23] = biological target: Neu5Ac(a2-8)Neu5Ac(a2-8)Neu5Ac(a2-3)Gal(b1-4)Glc
# Procedure, shortened: as §1
# [24] = biological target: Neu5Ac(a2-8)Neu5Ac(a2-8)Neu5Ac(a2-3)[GalNAc(b1-4)]Gal(b1-4)Glc
# Procedure, shortened: as §1
# [25] = biological target: Neu5Ac(a2-8)Neu5Ac(a2-8)Neu5Ac(a2-8)Neu5Ac(a2-3)[GalNAc(b1-4)]Gal(b1-4)Glc
# Procedure, shortened: as §1
# [26] = biological target: Neu5Ac(b2-6)Gal(b1-4)GlcNAc
# Procedure, shortened: as §1
# Neu5Ac(b2-6)GalNAc = biological target: Neu5Ac(b2-6)GalNAc
# Procedure, shortened: as §1
# [27] = biological target: Neu5Ac9Ac(a2-3)Gal(b1-3)GlcNAc
# Procedure, shortened: as §1
# [28] = biological target: Neu5Ac9Ac(a2-3)Gal(b1-4)GlcNAc
# Procedure, shortened: as §1
# [29] = biological target: Neu5Ac9Ac(a2-6)Gal(b1-4)GlcNAc
# Procedure, shortened: as §1
# [30] = biological target: Neu5Gc(a2-3)Gal(b1-3)GlcNAc
# Procedure, shortened: as §1
# [31] = biological target: Neu5Gc(a2-3)Gal(b1-3)[Fuc(a1-4)]GlcNAc
# Procedure, shortened: as §1
# Neu5Gc(a2-3)Gal(b1-4)Glc = biological target: Neu5Gc(a2-3)Gal(b1-4)Glc
# Procedure, shortened: as §1
# [32] = biological target: Neu5Gc(a2-3)Gal(b1-4)GlcNAc
# Procedure, shortened: as §1
# [33] = biological target: Neu5Gc(a2-3)Gal(b1-4)[Fuc(a1-3)]GlcNAc
# Procedure, shortened: as §1
# [34] = biological target: Neu5Gc(a2-6)Gal(b1-4)GlcNAc
# Procedure, shortened: as §1
# Neu5Gc(a2-6)GalNAc = biological target: Neu5Gc(a2-6)GalNAc
# Procedure, shortened: as §1
# [35] = biological target: Neu5Gc(b2-6)Gal(b1-4)GlcNAc
# Procedure, shortened: as §1
binder,measurement,setting,value
B1,glycan array binding signal (z-score),[1],0.067
same,glycan array binding signal (z-score),[2],0.99
same,glycan array binding signal (z-score),[3],-0.365
same,glycan array binding signal (z-score),[4],0.411
same,glycan array binding signal (z-score),[5],0.699
same,glycan array binding signal (z-score),[6],0.305
same,glycan array binding signal (z-score),[7],-0.196
same,glycan array binding signal (z-score),[8],0.443
same,glycan array binding signal (z-score),[9],-0.792
same,glycan array binding signal (z-score),[10],-0.14
same,glycan array binding signal (z-score),[11],1.28
same,glycan array binding signal (z-score),[12],-0.494
same,glycan array binding signal (z-score),[13],0.032
same,glycan array binding signal (z-score),[14],-0.661
same,glycan array binding signal (z-score),[15],-1.24
same,glycan array binding signal (z-score),[16],-0.465
same,glycan array binding signal (z-score),Neu5Ac(a2-6)GalNAc,-0.367
same,glycan array binding signal (z-score),[17],-1.96
same,glycan array binding signal (z-score),[18],0.953
same,glycan array binding signal (z-score),[19],-0.248
same,glycan array binding signal (z-score),Neu5Ac(a2-8)Neu5Ac,0.329
same,glycan array binding signal (z-score),[20],0.726
same,glycan array binding signal (z-score),[21],0.872
same,glycan array binding signal (z-score),[22],-0.501
same,glycan array binding signal (z-score),[23],-0.292
same,glycan array binding signal (z-score),[24],-0.394
same,glycan array binding signal (z-score),[25],2.43
same,glycan array binding signal (z-score),[26],-0.275
same,glycan array binding signal (z-score),Neu5Ac(b2-6)GalNAc,0.088
same,glycan array binding signal (z-score),[27],0.98
same,glycan array binding signal (z-score),[28],-1.32
same,glycan array binding signal (z-score),[29],-1.66
same,glycan array binding signal (z-score),[30],-0.171
same,glycan array binding signal (z-score),[31],-0.987
same,glycan array binding signal (z-score),Neu5Gc(a2-3)Gal(b1-4)Glc,-1.77
same,glycan array binding signal (z-score),[32],0.756
same,glycan array binding signal (z-score),[33],-1.16
same,glycan array binding signal (z-score),[34],-0.453
same,glycan array binding signal (z-score),Neu5Gc(a2-6)GalNAc,-0.83
same,glycan array binding signal (z-score),[35],0.047

# Source: the supplement of paper PMC8728848
